Experimental findings from patent EP0969016 (dated 2000) are described below.

A short description of data set [1]: general procedure: Boc solid-phase peptide synthesis; p-methylbenzhydrylamine (HCl salt) resin; N-methylpyrrolidone/hydroxybenzotriazole t-BOC cycles. The note with it: late stage modification step, based on HPLC peak areas.
The next data set is described as follows: peptide synthesis. The conditions noted are these: whole synthesis.

As for “H2N-R-COOH wherein R is a derivative of His-Ala-Glu-Gly-Thr-Phe-Thr-Ser-Asp-Val-Ser-Ser-Tyr-Leu-Glu-Gly-Gln-Ala-Ala-Lys-Glu-Phe-Ile-Ala-Trp-Leu-Val-Lys-Gly-Arg-Gly (SEQUENCE ID NO: 2) where the derivative is N-terminal (N-alpha) succinoylated and the epsilon amine group of both Lys residues are succ”, the step yield entry in data set [1] was “approximately 90%”. As to “H2N-R-X-(Y)n-Z wherein n is zero; X is arg; Z is CONR^2R^3 where R^2 and R^3 are H; and R is His-Ala-Glu-Gly-Thr-Phe-Thr-Ser-Asp-Val-Ser-Ser-Tyr-Leu-Glu-Gly-Gln-Ala-Ala-Lys-Glu-Phe-Ile-Ala-Trp-Leu-Val-Lys-Gly-Arg-Gly (SEQUENCE ID NO: 2)”, in the data set “peptide synthesis”, the difficulty met entry was “Analytical HPLC data suggested incomplete removal of the Trp formyl protecting group”.
